Taken from: PubChem BioAssay AID1259424 (University of Nebraska Medical Center, 2018)
In all, the deposit lists about 14,000 reagents; this is a random part of them. 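Higher correlation or smaller distance means closer resemblance to KSR1 loss; control wells, including KSR1 knockdowns, recur on many plates.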 Further read-outs or replicates are left out here. The record does not give: the time to read-out.

Purpose: 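Find knockdowns that reproduce the expression shifts seen after KSR1 loss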 (primary screen)
Cells: human HCT116 colon cancer cells
Knock-down reagent: siRNA pool against human genes, 50 nM
Measurement: 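Six signature mRNAs by branched-DNA multiplex assay, scaled to two housekeeping genes and non-targeting median, log2; matched to mean KSR1 knockdown profile by Pearson correlation and euclidean distance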
Direction: mean correlation with KSR1 profile: higher = expression change more like KSR1 knockdown; mean distance from KSR1 profile: higher = expression change less like KSR1 knockdown

CKM (GeneID 1158)
- mean correlation with KSR1 profile: -0.372
- mean distance from KSR1 profile: 3.07

ABCD3 (GeneID 5825)
- mean correlation with KSR1 profile: 0.286
- mean distance from KSR1 profile: 2.32

M6PR (GeneID 4074)
- mean correlation with KSR1 profile: 0.416
- mean distance from KSR1 profile: 1.03

FNTA (GeneID 2339)
- mean correlation with KSR1 profile: -0.639
- mean distance from KSR1 profile: 3.36

RBM45 (GeneID 129831)
- mean correlation with KSR1 profile: -0.675
- mean distance from KSR1 profile: 2.97

KRT34 (GeneID 3885)
- mean correlation with KSR1 profile: 0.326
- mean distance from KSR1 profile: 1.79

RUBCNL (GeneID 80183)
- mean correlation with KSR1 profile: 0.339
- mean distance from KSR1 profile: 2.42

CELSR1 (GeneID 9620)
- mean correlation with KSR1 profile: 0.738
- mean distance from KSR1 profile: 1.74

RSBN1 (GeneID 54665)
- mean correlation with KSR1 profile: -0.847
- mean distance from KSR1 profile: 2.57

Next part (2 carried over from the part before).
CELSR1 (GeneID 9620)
- mean correlation with KSR1 profile: 0.738
- mean distance from KSR1 profile: 1.74

RSBN1 (GeneID 54665)
- mean correlation with KSR1 profile: -0.847
- mean distance from KSR1 profile: 2.57

TBC1D1 (GeneID 23216)
- mean correlation with KSR1 profile: -0.00711
- mean distance from KSR1 profile: 1.65

PANK4 (GeneID 55229)
- mean correlation with KSR1 profile: 0.656
- mean distance from KSR1 profile: 2.18

FERMT1 (GeneID 55612)
- mean correlation with KSR1 profile: -0.659
- mean distance from KSR1 profile: 4.44

SCG5 (GeneID 6447)
- mean correlation with KSR1 profile: 0.378
- mean distance from KSR1 profile: 2.06

WDR54 (GeneID 84058)
- mean correlation with KSR1 profile: 0.704
- mean distance from KSR1 profile: 1.98

ADGRB1 (GeneID 575)
- mean correlation with KSR1 profile: 0.607
- mean distance from KSR1 profile: 1.62

NOL4 (GeneID 8715)
- mean correlation with KSR1 profile: -0.53
- mean distance from KSR1 profile: 1.72

CRAT (GeneID 1384)
- mean correlation with KSR1 profile: -0.696
- mean distance from KSR1 profile: 2.87

MAGEF1 (GeneID 64110)
- mean correlation with KSR1 profile: -0.537
- mean distance from KSR1 profile: 3.53

SLC6A12 (GeneID 6539)
- mean correlation with KSR1 profile: 0.389
- mean distance from KSR1 profile: 1.93
